This passage reports log2 fold change results from the supplement of paper PMC12819154, “High-throughput peptide-centric local stability assay extends protein–ligand identification to membrane proteins, tissues and bacteria” (Nature Structural & Molecular Biology, 2025).

Amino acid sequences for entries named in this document (tags omitted). A change or cut given only in a name is not applied to a line headed by its entry.
UniProt Q9NVA1: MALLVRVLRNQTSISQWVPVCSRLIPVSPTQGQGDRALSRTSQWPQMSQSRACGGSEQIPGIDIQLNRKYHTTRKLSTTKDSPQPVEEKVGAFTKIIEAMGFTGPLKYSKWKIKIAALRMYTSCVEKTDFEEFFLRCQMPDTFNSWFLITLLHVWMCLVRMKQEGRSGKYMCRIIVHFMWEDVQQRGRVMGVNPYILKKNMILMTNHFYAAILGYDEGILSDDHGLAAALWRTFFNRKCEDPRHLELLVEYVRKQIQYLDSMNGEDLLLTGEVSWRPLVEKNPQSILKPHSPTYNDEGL
UniProt Q9NWK9: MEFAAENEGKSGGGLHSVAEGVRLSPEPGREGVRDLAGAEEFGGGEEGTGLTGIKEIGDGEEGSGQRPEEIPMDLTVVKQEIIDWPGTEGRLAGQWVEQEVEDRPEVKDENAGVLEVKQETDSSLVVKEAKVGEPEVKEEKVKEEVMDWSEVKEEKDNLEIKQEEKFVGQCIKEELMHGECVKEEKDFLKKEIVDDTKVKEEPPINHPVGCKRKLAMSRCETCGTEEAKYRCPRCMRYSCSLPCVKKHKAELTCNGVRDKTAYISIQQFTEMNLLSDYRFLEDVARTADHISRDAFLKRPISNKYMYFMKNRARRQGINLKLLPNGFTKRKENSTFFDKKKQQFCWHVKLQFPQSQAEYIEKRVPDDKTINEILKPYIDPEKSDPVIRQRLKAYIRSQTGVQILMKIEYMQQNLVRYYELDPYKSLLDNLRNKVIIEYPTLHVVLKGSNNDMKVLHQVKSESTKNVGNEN
UniProt Q9NQC7: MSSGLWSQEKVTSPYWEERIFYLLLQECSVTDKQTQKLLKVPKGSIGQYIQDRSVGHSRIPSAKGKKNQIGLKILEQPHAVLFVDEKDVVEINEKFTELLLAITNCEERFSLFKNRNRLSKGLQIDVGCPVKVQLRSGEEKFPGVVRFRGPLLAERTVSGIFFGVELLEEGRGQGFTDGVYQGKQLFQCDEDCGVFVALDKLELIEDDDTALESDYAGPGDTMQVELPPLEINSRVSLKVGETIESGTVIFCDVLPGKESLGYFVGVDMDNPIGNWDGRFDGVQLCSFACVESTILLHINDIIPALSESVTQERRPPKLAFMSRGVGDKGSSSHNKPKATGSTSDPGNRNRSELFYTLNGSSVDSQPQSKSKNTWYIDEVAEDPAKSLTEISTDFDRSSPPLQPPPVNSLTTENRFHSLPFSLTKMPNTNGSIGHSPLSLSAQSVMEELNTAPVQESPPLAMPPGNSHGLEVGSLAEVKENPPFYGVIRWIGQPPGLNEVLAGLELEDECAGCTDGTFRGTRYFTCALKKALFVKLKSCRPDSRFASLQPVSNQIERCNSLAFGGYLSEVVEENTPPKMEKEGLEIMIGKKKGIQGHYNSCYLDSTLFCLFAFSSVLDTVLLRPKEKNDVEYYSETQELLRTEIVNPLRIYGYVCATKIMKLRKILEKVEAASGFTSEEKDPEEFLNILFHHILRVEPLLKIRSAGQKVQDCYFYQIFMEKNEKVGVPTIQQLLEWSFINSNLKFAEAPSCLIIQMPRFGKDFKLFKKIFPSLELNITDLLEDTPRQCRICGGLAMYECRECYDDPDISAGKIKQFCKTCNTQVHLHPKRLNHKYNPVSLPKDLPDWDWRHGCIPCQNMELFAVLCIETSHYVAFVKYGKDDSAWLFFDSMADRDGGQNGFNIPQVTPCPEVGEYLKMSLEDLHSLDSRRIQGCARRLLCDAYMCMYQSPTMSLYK
UniProt Q9NWD9: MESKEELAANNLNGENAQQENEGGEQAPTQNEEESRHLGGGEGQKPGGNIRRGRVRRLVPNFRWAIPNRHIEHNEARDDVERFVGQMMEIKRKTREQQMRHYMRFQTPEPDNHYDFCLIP
UniProt Q9NP73: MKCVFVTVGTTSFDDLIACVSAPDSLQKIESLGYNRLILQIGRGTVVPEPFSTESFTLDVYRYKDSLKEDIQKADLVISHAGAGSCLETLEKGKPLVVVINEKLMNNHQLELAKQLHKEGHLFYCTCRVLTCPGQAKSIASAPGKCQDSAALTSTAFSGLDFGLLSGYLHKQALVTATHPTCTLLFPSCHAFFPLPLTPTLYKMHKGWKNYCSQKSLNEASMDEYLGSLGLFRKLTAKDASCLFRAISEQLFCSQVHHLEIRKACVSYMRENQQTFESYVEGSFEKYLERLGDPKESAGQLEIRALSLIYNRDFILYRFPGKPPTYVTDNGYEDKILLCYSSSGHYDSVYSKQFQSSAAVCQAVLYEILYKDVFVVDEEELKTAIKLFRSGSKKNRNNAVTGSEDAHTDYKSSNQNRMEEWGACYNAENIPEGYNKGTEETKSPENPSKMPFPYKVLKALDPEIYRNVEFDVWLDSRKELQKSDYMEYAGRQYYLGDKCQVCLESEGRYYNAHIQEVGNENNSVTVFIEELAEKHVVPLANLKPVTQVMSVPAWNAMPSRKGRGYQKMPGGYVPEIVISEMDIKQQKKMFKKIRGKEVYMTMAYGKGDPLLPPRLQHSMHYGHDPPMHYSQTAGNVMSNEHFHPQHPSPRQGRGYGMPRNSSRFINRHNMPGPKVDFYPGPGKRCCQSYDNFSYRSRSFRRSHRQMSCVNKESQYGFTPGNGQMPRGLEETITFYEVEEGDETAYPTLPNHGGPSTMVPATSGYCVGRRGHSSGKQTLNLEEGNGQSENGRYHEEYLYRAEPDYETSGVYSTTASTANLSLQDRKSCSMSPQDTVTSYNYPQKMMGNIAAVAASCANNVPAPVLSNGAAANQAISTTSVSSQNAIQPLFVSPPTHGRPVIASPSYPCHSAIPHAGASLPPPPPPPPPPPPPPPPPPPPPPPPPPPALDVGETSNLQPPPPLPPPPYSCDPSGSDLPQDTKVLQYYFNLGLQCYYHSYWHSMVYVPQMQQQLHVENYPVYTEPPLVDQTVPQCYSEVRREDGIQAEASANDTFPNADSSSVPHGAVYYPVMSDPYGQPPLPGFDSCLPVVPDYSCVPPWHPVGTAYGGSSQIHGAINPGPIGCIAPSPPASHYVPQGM
UniProt Q9NPI8: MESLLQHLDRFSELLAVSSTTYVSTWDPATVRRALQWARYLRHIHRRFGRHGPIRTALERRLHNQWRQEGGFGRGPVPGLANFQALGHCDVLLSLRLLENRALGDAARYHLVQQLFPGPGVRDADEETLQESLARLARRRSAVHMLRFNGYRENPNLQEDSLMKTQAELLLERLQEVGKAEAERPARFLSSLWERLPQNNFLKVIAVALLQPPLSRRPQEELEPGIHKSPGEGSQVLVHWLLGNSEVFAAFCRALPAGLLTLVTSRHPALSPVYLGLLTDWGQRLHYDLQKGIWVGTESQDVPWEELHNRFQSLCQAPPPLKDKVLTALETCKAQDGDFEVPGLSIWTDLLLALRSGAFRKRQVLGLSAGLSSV
UniProt Q9NP61: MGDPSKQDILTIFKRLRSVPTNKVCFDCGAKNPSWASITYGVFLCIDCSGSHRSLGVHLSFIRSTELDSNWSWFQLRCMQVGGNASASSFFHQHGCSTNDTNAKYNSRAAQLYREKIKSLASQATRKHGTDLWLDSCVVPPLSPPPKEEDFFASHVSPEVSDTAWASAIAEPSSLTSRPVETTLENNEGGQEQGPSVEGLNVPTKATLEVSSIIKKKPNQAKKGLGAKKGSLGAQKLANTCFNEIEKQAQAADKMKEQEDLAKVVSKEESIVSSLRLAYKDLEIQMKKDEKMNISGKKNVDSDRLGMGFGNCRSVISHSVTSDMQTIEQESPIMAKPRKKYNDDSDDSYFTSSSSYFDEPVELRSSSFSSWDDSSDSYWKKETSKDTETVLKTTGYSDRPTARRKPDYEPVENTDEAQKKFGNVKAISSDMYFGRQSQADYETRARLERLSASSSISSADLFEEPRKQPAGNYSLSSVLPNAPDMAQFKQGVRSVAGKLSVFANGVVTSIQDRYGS
UniProt Q9NPD3, whole entry: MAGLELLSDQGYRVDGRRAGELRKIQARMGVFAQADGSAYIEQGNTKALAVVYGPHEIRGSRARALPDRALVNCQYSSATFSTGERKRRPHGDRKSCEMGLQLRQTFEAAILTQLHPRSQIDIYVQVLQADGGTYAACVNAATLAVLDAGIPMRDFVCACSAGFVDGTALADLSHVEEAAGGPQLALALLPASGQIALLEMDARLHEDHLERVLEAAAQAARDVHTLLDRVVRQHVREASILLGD
UniProt Q9NU23: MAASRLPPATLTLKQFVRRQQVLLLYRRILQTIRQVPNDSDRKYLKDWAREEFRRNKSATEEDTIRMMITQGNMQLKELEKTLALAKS
UniProt Q9NRR4: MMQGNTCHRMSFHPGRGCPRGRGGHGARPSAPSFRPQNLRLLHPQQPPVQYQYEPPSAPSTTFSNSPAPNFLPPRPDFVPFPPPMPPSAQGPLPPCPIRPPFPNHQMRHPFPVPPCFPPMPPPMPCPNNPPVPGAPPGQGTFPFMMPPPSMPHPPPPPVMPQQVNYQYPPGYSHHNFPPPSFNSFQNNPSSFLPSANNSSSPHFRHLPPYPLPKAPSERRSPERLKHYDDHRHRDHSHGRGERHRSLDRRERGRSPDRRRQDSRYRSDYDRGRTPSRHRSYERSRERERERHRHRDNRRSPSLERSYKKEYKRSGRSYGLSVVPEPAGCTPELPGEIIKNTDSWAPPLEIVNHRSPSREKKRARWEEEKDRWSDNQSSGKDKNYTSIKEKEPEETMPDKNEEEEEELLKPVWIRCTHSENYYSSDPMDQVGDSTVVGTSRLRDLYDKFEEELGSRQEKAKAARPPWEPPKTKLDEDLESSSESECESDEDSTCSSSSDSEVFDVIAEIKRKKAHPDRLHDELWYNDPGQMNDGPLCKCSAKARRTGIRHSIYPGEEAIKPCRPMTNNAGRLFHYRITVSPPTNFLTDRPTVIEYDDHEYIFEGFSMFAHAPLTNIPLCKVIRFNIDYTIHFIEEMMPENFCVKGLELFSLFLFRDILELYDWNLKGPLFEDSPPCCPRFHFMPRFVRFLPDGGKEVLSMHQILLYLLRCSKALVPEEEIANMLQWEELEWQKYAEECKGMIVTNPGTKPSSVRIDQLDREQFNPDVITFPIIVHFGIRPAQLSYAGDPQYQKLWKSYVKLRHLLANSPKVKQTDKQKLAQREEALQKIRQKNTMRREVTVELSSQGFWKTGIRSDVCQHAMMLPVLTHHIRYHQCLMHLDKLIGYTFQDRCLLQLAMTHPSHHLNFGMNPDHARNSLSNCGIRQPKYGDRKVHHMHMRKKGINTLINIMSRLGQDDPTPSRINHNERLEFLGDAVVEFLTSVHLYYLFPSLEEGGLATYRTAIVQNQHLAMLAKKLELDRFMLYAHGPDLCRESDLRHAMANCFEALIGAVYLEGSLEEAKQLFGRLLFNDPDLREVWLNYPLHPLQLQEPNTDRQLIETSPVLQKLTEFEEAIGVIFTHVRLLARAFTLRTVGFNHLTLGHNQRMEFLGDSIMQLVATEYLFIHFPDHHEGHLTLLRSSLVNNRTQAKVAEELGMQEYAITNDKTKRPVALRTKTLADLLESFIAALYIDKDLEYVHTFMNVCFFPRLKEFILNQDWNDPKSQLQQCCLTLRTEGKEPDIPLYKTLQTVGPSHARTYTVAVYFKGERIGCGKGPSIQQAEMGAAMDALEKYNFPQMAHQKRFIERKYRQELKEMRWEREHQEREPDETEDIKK
UniProt Q9NVN8: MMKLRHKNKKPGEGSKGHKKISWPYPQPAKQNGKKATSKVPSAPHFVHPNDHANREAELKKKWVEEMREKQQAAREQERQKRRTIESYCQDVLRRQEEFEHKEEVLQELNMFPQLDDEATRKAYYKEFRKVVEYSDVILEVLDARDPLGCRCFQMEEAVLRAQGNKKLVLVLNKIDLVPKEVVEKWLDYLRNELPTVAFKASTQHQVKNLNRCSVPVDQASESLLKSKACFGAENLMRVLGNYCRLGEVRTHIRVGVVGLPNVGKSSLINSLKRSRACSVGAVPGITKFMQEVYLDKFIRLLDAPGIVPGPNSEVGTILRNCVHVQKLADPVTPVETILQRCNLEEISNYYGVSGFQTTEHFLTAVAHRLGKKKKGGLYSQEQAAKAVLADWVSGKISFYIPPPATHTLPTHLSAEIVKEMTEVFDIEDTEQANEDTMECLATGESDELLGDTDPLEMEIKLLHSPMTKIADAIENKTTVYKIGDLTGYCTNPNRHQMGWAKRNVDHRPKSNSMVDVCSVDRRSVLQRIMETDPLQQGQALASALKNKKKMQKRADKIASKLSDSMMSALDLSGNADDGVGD
UniProt Q9NRD5, whole entry: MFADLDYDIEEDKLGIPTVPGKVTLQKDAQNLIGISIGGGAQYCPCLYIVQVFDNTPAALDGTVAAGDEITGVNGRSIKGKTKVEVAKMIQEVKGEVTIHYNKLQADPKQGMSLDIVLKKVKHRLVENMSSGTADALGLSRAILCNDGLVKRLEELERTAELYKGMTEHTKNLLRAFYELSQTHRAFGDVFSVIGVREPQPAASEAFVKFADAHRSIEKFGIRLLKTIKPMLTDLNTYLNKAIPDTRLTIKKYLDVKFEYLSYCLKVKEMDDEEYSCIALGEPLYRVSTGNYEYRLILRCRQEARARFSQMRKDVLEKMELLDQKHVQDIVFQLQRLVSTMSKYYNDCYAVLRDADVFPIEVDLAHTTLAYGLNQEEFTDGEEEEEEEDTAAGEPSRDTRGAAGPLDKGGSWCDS

The list shows a part of the results. Most values lie at the level of the controls, where differences are scatter.

Compound in the assay: Cc1nc(Nc2ncc(C(=O)Nc3c(C)cccc3Cl)s2)cc(N2CCN(CCO)CC2)n1 [dasatinib]
The assay can be described thus: log2 fold change of tryptic peptide abundance, ligand vs vehicle (limited proteolysis) (log2 ratio); higher = more trypsin-susceptible (destabilized). As to conditions: ligand concentration: 5 uM; sample: K562 cleared lysate.
On to “UniProt Q9NVA1 (peptide sequence: VMGVNPYILK, peptide start residue: 189)”, for which the log2 fold change is 0.516.

Take “ZNHIT6 (peptide sequence: SQTGVQILMK, peptide start residue: 397) (UniProt Q9NWK9)”: the log2 fold change was -0.192.

As to “DDX28 (peptide sequence: GSFADLGLEPR, peptide start residue: 126) (UniProt Q9NUL7)”, the log2 fold change stood at 0.466.

With “HIF1AN (peptide sequence: RIEYPLKAHQK, peptide start residue: 305) (UniProt Q9NWT6)”, the log2 fold change was 1.38.

As for “UniProt Q9NRW1 (peptide sequence: TMYLEDR, peptide start residue: 54)”, the log2 fold change stood at 0.0207.

In the case of “SIRT3 (peptide sequence: DLVGPLAWHPR, peptide start residue: 346) (UniProt Q9NTG7)”, the log2 fold change is -0.16.

On to “UniProt Q9NPA8 (peptide sequence: MNKDAQMR, peptide start residue: 6)”, for which the log2 fold change was found to be 0.209.

Regarding “MYO10 (peptide sequence: EEEERER, peptide start residue: 200) (UniProt Q9HD67)”, the log2 fold change was -0.0284.

“CYLD (peptide sequence: ATGSTSDPGNR, peptide start residue: 339) (UniProt Q9NQC7)”: the log2 fold change was -0.129.

On to “BEX4 (peptide sequence: FVGQMMEIK, peptide start residue: 83) (UniProt Q9NWD9)”, for which the log2 fold change is -0.157.

For “MRPL22 (peptide sequence: SNLYIAESTSGR, peptide start residue: 132) (UniProt Q9NWU5)”, the log2 fold change was 0.0618.

Take “PRMT8 (peptide sequence: EVDIYTVK, peptide start residue: 254) (UniProt Q9NR22)”: the log2 fold change is 0.0643.

Take “EPB41L5 (peptide sequence: AQVEAVHK, peptide start residue: 569) (UniProt Q9HCM4)”: the log2 fold change was 0.276.

For the target “POLD4 (peptide sequence: LITDSYPVVK, peptide start residue: 6) (UniProt Q9HCU8)”, the log2 fold change is -0.0203.

“ALG13 (peptide sequence: ALDPEIYR, peptide start residue: 459) (UniProt Q9NP73)”: the log2 fold change was found to be 0.175.

For the target “SARS2 (peptide sequence: ELVHLYPR, peptide start residue: 148) (UniProt Q9NP81)”, the log2 fold change worked out at 0.161.

Regarding “FANCF (peptide sequence: TQAELLLER, peptide start residue: 165) (UniProt Q9NPI8)”, the log2 fold change was -0.264.

“PFDN4 (peptide sequence: KAAAEDVNVTFEDQQK, peptide start residue: 7) (UniProt Q9NQP4)”: the log2 fold change is -0.0596.

“RIC8B (peptide sequence: AGEAGAIER, peptide start residue: 12) (UniProt Q9NVN3)”: the log2 fold change was found to be 0.239.

Consider “OLA1 (peptide sequence: LKPEYDIMCKVK, peptide start residue: 179) (UniProt Q9NTK5)”, for which the log2 fold change was 0.363.

As for “ARFGAP3 (peptide sequence: SLGVHLSFIR, peptide start residue: 55) (UniProt Q9NP61)”, the log2 fold change was -0.363.

With “DYNLRB1 (peptide sequence: STVRDIDPQNDLTFLR, peptide start residue: 55) (UniProt Q9NP97)”, the log2 fold change was -0.172.

For “EXOSC4 (peptide sequence: DVHTLLDR, peptide start residue: 223) (UniProt Q9NPD3)”, the log2 fold change is -0.117.

Regarding “STARD7 (peptide sequence: AQTEGNEDSEGK, peptide start residue: 126) (UniProt Q9NQZ5)”, the log2 fold change stood at 0.512.

For “LYRM2 (peptide sequence: LPPATLTLK, peptide start residue: 6) (UniProt Q9NU23)”, the log2 fold change amounted to 0.335.

For “UniProt Q9NRR4 (peptide sequence: AARPPWEPPKTK, peptide start residue: 461)”, the log2 fold change is -0.458.

On to “WDR6 (peptide sequence: VQNIGHCFGHSAR, peptide start residue: 248) (UniProt Q9NNW5)”, for which the log2 fold change was 0.567.

As for “C14orf119 (peptide sequence: FYQAVAATAGKD, peptide start residue: 129) (UniProt Q9NWQ9)”, the log2 fold change was -0.114.

As for “TMLHE (peptide sequence: SLTCAWQQHEDHFELK, peptide start residue: 48) (UniProt Q9NVH6)”, the log2 fold change was -0.341.

As to “EXOSC5 (peptide sequence: IGLPGVAEK, peptide start residue: 84) (UniProt Q9NQT4)”, the log2 fold change is 0.216.

As to “UniProt Q9NPJ4 (peptide sequence: SQANQNYAGAK, peptide start residue: 87)”, the log2 fold change is -0.0453.

As to “GNL3L (peptide sequence: NELPTVAFK, peptide start residue: 192) (UniProt Q9NVN8)”, the log2 fold change is -0.124.

On to “PICK1 (peptide sequence: VSTGNYEYR, peptide start residue: 287) (UniProt Q9NRD5)”, for which the log2 fold change is -0.276.

“SH3GLB2 (peptide sequence: VAQTEFDRQAEVTR, peptide start residue: 223) (UniProt Q9NR46)”: the log2 fold change came out at 0.193.

For “FGFR1OP2 (peptide sequence: LRDHDDAAESLIEQTTALNK, peptide start residue: 19) (UniProt Q9NVK5)”, the log2 fold change was found to be 0.485.

As for “MLXIPL (peptide sequence: GKPPAPSPR, peptide start residue: 493) (UniProt Q9NP71)”, the log2 fold change was 0.18.

As to “UniProt Q9HCM1 (peptide sequence: TAFLPNKDVYKK, peptide start residue: 1338)”, the log2 fold change was -0.212.

For “INTS7 (peptide sequence: LIPILQHMHHDAILASSAR, peptide start residue: 197) (UniProt Q9NVH2)”, the log2 fold change was found to be 0.303.
